# Test system: A549 human lung adenocarcinoma cells
# Assay: MTT assay, in vitro cytotoxic activity on A549
# Format: cell-based
# Details: SI= IC50 for CCDLul9 cell line / IC50 for A549 cell line
# Description: The in vitro cytotoxic effects of the compounds were determined with the MTT assay. For this purpose, MTT test was performed using A549 and CCD-19Lu cell lines. After the cell lines used in the invention were centrifuged following taking them out from liquid nitrogen (-196 °C), the cells were cultured in a CO2 incubator comprising 5% CO2 at 37 °C in flasks containing 10% fetal bovine serum (FBS), where CCD-19Lu cells were cultured with Dulbecco's Modified Eagle's Medium (DMEM) and A549 cells were cultured with Roswell Park Memorial Institute (RPMI). The cells that reach the sufficient number for the assay, were seeded to 96 well plates such that 2×10^3 cells were placed in each well and at the same time, components at concentrations of 1-500 µg/mL were added to cells and they were incubated at 37 °C. At the end of the 24 hour incubation period, the MTT powder (5 mg/mL in 1 × phosphate buffered saline (PBS)) was added to each well (20 µL). After a 2-4 h period under the same conditions, the medium was removed from the plate and 100 µL of DMSO was added to each well to dissolve the dye and kept for 10 minutes. Then the plates were read at a wavelength of 540 nm using ELx808-IU Bio-Tek plate reader. The control cell viability which was not treated with the components was accepted to be 100% and the viability rates of the cells were expressed as %. […] According to the results obtained, the dose range was extended until the IC50 value was determined. MTT assay is a frequently used method which measures the cytotoxic effects of the compounds on the cells by converting the yellow colored MTT stain into purple colored formazan crystals via the mitochondrial succinate dehydrogenase activity. In the cytotoxic activity tests of the compounds, A549 lung adenocarcinoma and CCDLu19 normal lung fibroblast cell lines were used.
row,Structure (SMILES),SI values*
1,CS(=O)(=O)c1ccc(C2=Nn3c(CCc4ccc5c(c4)OCO5)nnc3SC2)cc1 [Compound 9],17.68
2,"FC(F)(F)c1ccc(C2=Nn3c(CCc4ccc5c(c4)OCO5)nnc3SC2)cc1 [Compound 11, 3-[2-(1,3-Benzodioxole-5-yl)ethyl]-6-(4-trifluoromethylphenyl)-7H-[1,2,4]triazolo [3,4-b][1,3,4]thiadiazine]",155.25
3,"c1ccc(-c2ccc(C3=Nn4c(CCc5ccc6c(c5)OCO6)nnc4SC3)cc2)cc1 [Compound 14, 3-[2-(1,3-Benzodioxole-5-yl)ethyl]-6-(biphenyl-4-yl)-7H-[1,2,4]triazolo[3,4-b] [1,3,4]thiadiazine]",24.71
4,"Fc1cccc(C2=Nn3c(CCc4ccc5c(c4)OCO5)nnc3SC2)c1 [Compound 12, 3-[2-(1,3-Benzodioxole-5-yl)ethyl]-6-(3-fluorophenyl)-7H-[1,2,4]triazolo [3,4-b] [1,3,4]thiadiazine]",42.91

# From patent publication EP3958980B1, “TARGETED NOVEL TRIAZOLOTHIADIAZINE DERIVATIVES FOR THE TREATMENT OF LUNG CANCER” (Anadolu Universitesi, priority 2020, dated 2021)
